# Assay results published in PMC10163288.
# The other results are listed elsewhere or left out.
# B1: il2ra_site2_3nfp_normal_mot_HHH_b1_05627_af2_000000038_0001_43_56_H_._HHH_b2_01306_af2_0001_0000900014_0000001_1 (protein)
# chain: SSSSDKREEYVKAALELAKLAAEQGNPEIAEKHLRLAELFAEAVNNEELEELVRKVAEELSSSSS
# B2: il2ra_site1_1z92_normal_mot_HHH_b1_04604_af2_000000029_0001_42_56_H_._HHH_b2_04891_af2_0001_0000200006_0000001_0_af2pred_0001_af2pred (protein)
# chain: SSSSSSNLVELLRELQRLLREGDEEEFEKLAEEVKELAKELNSRSVRRLVELYEEELNSSSSSSS
# B3: il2ra_site1_1z92_sap_11_mot_1f8b761ca86cd746b2cfece001fd8b2b_0001_1_000000273_0001_33_46_H_._98c316dcd33a4a4659f1bb01e8c35f85_0001_0001_0000100019_0000001_0_000 … (protein)
# chain: DDKEAIKEEIEALAEIVGVDSVEVEERNGRFHVTIEGNDNRAETAAKVVERMAEAFGIDVEVEVE
# B4: il2ra_site2_2erj_normal_mot_HHH_b2_05866_000000027_0001_43_57_H_._HHH_b2_01310_0001_0000200015_0000001_0 (protein)
# chain: SSSSSDHKEIWEEVAELLARLAEVSEEELEELLKEAKRLAEEVNDPILRRYVEFAERDVKSSSSS
# B5: il2ra_site1_3nfp_normal_mot_HHH_b2_05589_af2_000000178_0001_1_18_H_._HHH_b2_04912_af2_0001_0000100001_0000001_0 (protein)
# chain: SSSSSEEFRQLQELDRELWKLRREGDEEEAKRVAKEALELAEELNDEAAKRLVRLWLELLSSSSS
# B6: il2ra_site1_1z92_sap_25_mot_HHH_b1_04615_af2_000000156_0001_38_52_H_._HHH_b1_02208_0001_0000100001_0000001_0_0001_af2pred_0001_af2pred (protein)
# chain: SSSSSDEEEIEEEILKLFREAMRIKDPEERERVLERAKELAEEINDERAKEDIERLEELLSSSSS
# B7: il2ra_site2_3nfp_sap_23_mot_347257a5708f0dc4a322ca97a98db719_0001_1_af2_000000210_0001_36_49_H_._796cb09f51c241c629a2416424e53d75_0001_0001_0000100001_0000001_0 … (protein)
# chain: SSSSDKEEERVEELLEELKRLIEEGDEEKARRAFAEAAHLIFELNDSELFARLAELALELWSSSS
# B8: il2ra_site2_2erj_normal_mot_HHH_b1_06554_af2_000000190_0001_44_57_H_._HHH_b1_08046_af2_0001_0000200004_0000001_0 (protein)
# chain: SSSSSDTVEVLLELAEELAKEGDKAELELILRYLELNREDDNTEEVEEAYEIVRELLERLSSSSS
# B9: il2ra_site1_2b5i_sap_13_mot_HHH_b2_00063_000000054_0001_1_20_H_._HHH_b1_05167_0001_0000400023_0000001_0_0001 (protein)
# chain: SSSSSERARQAIELFREADELDKRGNPEEAERVLEEALEIAKENGNRLLILMIENALRTLKSSSS
# B10: il2ra_site2_3nfp_normal_mot_HHH_b1_00239_000000199_0001_23_39_H_._HHH_b2_02904_0001_0000200025_0000001_0 (protein)
# chain: SSSSNEEILREAAELLLELLEERGDEEELRELEELLEELKRHGDPELQLELYAVLARIYSSSSSS
# B11: il2ra_site2_2erj_normal_mot_c2bf78bdce995293a161f7082e24b401_0001_af2_000000000_0001_17_32_H_._HHH_b1_00672_0001_0000200019_0000001_0 (protein)
# chain: SSSSTAEELFKLLQELLRLLQEGDEEEAERVLEEARRFAEELGSDNVKEFLEILFRLFEESSSSS
# B12: il2ra_site1_1z92_normal_mot_ems_3hC_153_0002_000000245_0001_46_63_H_._6169ea741eebcbe25a7a19b2986e1e54_0001_1_0001_0000100003_0000001_0_af2pred_0001_af2pred (protein)
# chain: SEEEELEELAEEAGVPPKDLKFLVEVAKRKAGGDPELTLEILVRLLKSFGDPDAQELARLIEEKR
# B13: il2ra_site2_2erj_normal_mot_HHH_b1_07584_000000201_0001_42_55_H_._HHH_b1_05881_0001_0000300010_0000001_0_af2pred_0001_af2pred (protein)
# chain: SSSSSLEKRVAELLEEVIRLAHEGNPEEARRLLEELLELLEELNNPELFAAVEANLRRVRKSSSS
# B14: il2ra_site1_3nfp_normal_mot_HHH_b1_08723_000000044_0001_1_15_H_._HHH_b2_03902_af2_0001_0001400091_0000001_1 (protein)
# chain: SSSSSDEELERLFRELFELAQRGDEEEARKLAEELAELAEELGDPHTLRSAEIALRLLRRSSSSS
# B15: il2ra_site2_2erj_sap_22_mot_HHH_b2_01204_af2_000000051_0001_19_34_H_._HHH_b2_04498_0001_0000300038_0000001_1_0001_af2pred_0001_1_af2pred_swapped (protein)
# chain: SSSSSEEVRERVEELLEEAKQIEDPEEALHVLSEAFELALKVDDPELKERVLRVLRELTNSSSSS
# B16: il2ra_site2_2erj_normal_mot_HHH_b1_02466_000000018_0001_22_38_H_._HHH_b1_06888_0001_0000200008_0000001_0 (protein)
# chain: SSSSDEELRREVEELLEEIKRLSPEEVNRLLQEIMKLLEELGDPEIHRLAWEALEILARLRSSSS
# B17: il2ra_site1_3nfp_sap_13_mot_HHH_b2_07180_000000236_0001_22_38_H_._HHH_b1_06361_0001_0000100007_0000001_0_0001_af2pred_0001_af2pred_1_swapped (protein)
# chain: SSSSTDRLKEFAELAREVSKLIQEGDEEEAKKLLEELERLAEEANSRVAKLLVEHLEEKLGSSSS
# B18: il2ra_site1_3nfp_normal_mot_7f2fc9564206058543fe500fefea0e08_0001_000000219_0001_1_13_H_._3f99faf52545b03be78200a5c604c070_0001_1_0001_0000200023_0000001_0_1_af … (protein)
# chain: SAVEELVERLEERGRIPPELAELLQEVIEKAHEKGDPRLLKLLQEALELAKRDPEKAREVVEKAT
# B19: il2ra_site1_1z92_normal_mot_HHH_b2_02821_000000266_0001_1_19_H_._HHH_b1_08462_0001_0000100009_0000001_0 (protein)
# chain: SSSSSSAEWAFELAELLLKTAERLGNERSLERVEFVLRQLRLLGDEELVEELQELLERVTSSSSS
# B20: il2ra_site1_3nfp_sap_19_mot_092036b618aed672410521e3cd842e06_0001_1_af2_000000145_0001_16_32_H_._05e43983d6d416f7770a7ecfe97503de_0001_0001_0000100003_0000001_0 … (protein)
# chain: SSSSDEEEREFLELAHELTKAWREGDKELAEELVRQAIELAEKLNDEKAKRVLEWLLEQFSSSSS
# B21: il2ra_site1_3nfp_sap_8_mot_HHH_b2_06193_000000064_0001_1_20_H_._HHH_b2_06395_0001_0000200001_0000001_0_0001 (protein)
# chain: SEEEVRKLLKEILQNPDPHEVERLLEELLKELEERGDPAARFVRQDLRHVRKMLEHAKESFEKSP
# B22: il2ra_site2_3nfp_normal_mot_HHH_b1_03516_af2_000000045_0001_38_52_H_._HHH_b1_06009_0001_0000200012_0000001_0 (protein)
# chain: SSSSHREDLIRALLILAKRLVEELEDPELRRQLEELIEKLEEEGDPHIAIRLAELLNEINSSSSS
# B23: il2ra_site2_2erj_normal_mot_HHH_b1_07186_000000032_0001_43_57_H_._HHH_b2_07598_0001_0000500024_0000001_1 (protein)
# chain: SSSSDEEKQKELLELLAKAAEIPDPEEARKVAEEALELAEELGNEYLERYARLALRDIRESSSSS
# B24: il2ra_site1_1z92_normal_mot_30aa582283ecb64a35315be28fff3e94_0001_000000110_0001_35_49_H_._HHH_b1_02999_0001_0000100009_0000001_0 (protein)
# chain: SSSSDSRERTAERLVEDFVRIAGLSEEQEEKLRELAKELVEEGYSPIEIAEILEELAKRLSSSSS
# Molecular target: il2ra, P01589
# Test: yeast display titration
row,Binder,apparent Kd
1,B1,inactive: no binding seen
2,B2,inactive: no binding seen
3,B3,inactive: no binding seen
4,B4,inactive: no binding seen
5,B5,inactive: no binding seen
6,B6,inactive: no binding seen
7,B7,inactive: no binding seen
8,B8,inactive: no binding seen
9,B9,inactive: no binding seen
10,B10,inactive: no binding seen
11,B11,inactive: no binding seen
12,B12,inactive: no binding seen
13,B13,inactive: no binding seen
14,B14,inactive: no binding seen
15,B15,inactive: no binding seen
16,B16,inactive: no binding seen
17,B17,inactive: no binding seen
18,B18,inactive: no binding seen
19,B19,inactive: no binding seen
20,B20,inactive: no binding seen
21,B21,inactive: no binding seen
22,B22,inactive: no binding seen
23,B23,inactive: no binding seen
24,B24,inactive: no binding seen

# Given bar-delimited: part of the list above
row | Binder | apparent Kd
1 | B1 | inactive: no binding seen
2 | B2 | inactive: no binding seen
